Part of at least one peptide drawing is inferred or uncertain, most often the ends. Ends that are not written are not given here.
Tested on: Listeria innocua MC2 KCTC 3658, Staphylococcus aureus ATCC 6538, Pseudomonas aeruginosa ATCC 27853, Salmonella ATCC 19430, Escherichia coli KCTC 1682
Experiment: Minimal inhibitory concentration, standard broth microdilution method
Assay type: cell-based
Settings: five strains, 37° C., 12 hours
Experimental: An antimicrobial assay was performed by measuring a minimal inhibitory concentration (MIC) value using a standard broth microdilution method. The antimicrobial activity of each of the peptides was measured using two gram-positive bacteria (Listeria innocua MC2 KCTC 3658 and Staphylococcus aureus ATCC 6538) and three gram-negative bacteria (Pseudomonas aeruginosa ATCC 27853, Salmonella ATCC 19430, and Escherichia coli KCTC 1682). 50 μl of each of the five bacterial strains were prepared, mixed with 5 ml of 3.7% BHI, and then cultured overnight under conditions of 37° C. and 240 rpm. Thereafter, 50 μl of each of the cultured bacterial strains was mixed with 5 ml of 3.7% BHI, and cultured for 2 hours under conditions of 37° C. and 240 rpm. Each of the cultured bacterial strains was diluted with a 0.037% BHI solution to a concentration of 1×10^8 CFU/ml.
A dissolved synthetic peptide was diluted twofold, stepwise, with BHIB in a 96 well-plate. […] After the incubation, a change in optical density at 600 nm was measured using Microplate Reader Multiskan FC (Thermo Scientific, Waltham, Mass., USA), and a range of the MIC was set as the lowest concentration of a peptide in which the growth of bacteria starts to be inhibited. […]

Row | Sequence | antibacterial activity (MIC experiment, FIG. 2)
1 | NKVKEWIKYLKSKFK [YK8, NKVKE WIKYL KSKFK] | effective antibacterial activity against the five strains when used at a low concentration
2 | NKVKEWWKWLKKL [YK11, NKVKE WWKWL KKL] | effective antibacterial activity against the five strains when used at a low concentration
